This is one part of the list. The data scatter; read single values as rough.

Sequences of proteins named here, by UniProt entry; tags and fusion partners are left off. A change or cut given only in a name is not applied to a line headed by its entry. Residues count along the entry.
UniProt P42574, 165-186: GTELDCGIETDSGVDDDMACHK
UniProt Q9NS00: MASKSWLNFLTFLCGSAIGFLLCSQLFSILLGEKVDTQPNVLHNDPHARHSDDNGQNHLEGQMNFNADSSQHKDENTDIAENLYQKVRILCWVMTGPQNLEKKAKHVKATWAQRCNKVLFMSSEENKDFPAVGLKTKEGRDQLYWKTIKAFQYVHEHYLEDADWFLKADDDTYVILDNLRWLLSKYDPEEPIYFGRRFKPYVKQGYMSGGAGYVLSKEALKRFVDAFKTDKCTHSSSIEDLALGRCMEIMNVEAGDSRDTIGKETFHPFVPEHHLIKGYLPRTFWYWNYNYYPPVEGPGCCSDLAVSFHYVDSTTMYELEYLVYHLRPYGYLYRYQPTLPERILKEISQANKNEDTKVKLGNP
UniProt O14523: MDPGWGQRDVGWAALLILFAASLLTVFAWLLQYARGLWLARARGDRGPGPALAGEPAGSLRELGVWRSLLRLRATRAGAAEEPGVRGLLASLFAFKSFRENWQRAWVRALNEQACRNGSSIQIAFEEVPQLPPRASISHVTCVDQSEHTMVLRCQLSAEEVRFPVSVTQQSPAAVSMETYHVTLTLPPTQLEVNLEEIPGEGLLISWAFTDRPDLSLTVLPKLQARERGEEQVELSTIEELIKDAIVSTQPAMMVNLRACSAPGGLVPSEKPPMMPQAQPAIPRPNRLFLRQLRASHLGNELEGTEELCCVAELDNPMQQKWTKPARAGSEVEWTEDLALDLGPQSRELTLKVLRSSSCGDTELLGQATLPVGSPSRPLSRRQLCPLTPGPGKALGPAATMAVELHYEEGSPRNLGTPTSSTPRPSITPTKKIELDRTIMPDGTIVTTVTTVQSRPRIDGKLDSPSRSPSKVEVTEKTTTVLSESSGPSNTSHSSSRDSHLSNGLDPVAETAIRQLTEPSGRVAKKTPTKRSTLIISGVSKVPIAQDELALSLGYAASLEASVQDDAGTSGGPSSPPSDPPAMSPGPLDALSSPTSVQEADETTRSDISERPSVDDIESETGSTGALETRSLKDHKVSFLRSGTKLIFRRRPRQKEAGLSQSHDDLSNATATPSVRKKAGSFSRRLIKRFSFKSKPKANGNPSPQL
UniProt O14936: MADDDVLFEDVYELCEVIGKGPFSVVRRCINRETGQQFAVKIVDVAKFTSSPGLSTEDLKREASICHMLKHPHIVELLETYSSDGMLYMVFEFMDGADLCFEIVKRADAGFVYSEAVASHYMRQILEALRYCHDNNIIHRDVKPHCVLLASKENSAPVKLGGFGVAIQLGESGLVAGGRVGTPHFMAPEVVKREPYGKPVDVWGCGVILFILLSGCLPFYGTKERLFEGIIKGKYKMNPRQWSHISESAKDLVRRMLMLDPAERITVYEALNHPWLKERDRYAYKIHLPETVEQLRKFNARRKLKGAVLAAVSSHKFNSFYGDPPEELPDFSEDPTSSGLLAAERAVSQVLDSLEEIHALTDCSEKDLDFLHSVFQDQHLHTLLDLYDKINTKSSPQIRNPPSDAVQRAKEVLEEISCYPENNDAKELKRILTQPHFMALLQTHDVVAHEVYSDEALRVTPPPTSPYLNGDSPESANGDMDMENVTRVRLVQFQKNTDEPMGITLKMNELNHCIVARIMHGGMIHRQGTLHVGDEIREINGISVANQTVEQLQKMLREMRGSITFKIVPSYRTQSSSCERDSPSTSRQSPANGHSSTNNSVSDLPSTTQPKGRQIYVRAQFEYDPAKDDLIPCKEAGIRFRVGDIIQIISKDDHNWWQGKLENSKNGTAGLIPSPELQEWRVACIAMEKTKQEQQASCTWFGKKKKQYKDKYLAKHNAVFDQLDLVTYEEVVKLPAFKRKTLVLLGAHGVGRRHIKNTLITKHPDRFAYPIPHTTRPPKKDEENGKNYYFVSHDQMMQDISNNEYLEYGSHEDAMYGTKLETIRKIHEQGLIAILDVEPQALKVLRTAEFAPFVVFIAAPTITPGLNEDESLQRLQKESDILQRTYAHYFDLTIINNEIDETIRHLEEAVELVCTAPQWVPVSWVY
UniProt Q6ZRI6: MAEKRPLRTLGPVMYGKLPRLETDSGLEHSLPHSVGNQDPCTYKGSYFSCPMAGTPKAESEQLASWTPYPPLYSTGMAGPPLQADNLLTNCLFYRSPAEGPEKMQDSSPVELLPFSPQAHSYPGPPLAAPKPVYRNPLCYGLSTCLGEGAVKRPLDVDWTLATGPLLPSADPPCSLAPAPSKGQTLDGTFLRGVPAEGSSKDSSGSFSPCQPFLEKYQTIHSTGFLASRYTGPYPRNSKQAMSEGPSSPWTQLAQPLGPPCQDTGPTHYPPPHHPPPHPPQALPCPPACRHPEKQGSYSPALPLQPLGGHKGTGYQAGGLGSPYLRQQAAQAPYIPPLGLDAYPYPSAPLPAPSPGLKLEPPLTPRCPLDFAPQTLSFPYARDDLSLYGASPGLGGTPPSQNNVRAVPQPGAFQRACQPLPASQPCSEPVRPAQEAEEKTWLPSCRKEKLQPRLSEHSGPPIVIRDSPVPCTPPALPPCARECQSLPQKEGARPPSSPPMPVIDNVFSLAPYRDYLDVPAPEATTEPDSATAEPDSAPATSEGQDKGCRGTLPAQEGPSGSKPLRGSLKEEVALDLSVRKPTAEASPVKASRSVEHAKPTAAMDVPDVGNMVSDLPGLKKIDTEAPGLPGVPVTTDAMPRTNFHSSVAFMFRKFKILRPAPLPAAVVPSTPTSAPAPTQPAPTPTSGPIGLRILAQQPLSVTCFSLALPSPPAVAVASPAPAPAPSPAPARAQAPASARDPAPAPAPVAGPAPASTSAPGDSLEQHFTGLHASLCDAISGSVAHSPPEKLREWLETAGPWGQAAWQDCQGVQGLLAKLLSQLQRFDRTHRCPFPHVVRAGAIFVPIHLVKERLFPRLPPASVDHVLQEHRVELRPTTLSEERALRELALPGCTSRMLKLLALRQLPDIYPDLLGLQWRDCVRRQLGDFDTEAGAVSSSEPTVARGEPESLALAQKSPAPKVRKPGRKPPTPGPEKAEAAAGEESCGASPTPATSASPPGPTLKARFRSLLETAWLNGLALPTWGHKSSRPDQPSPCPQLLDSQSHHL
UniProt Q9NSG2: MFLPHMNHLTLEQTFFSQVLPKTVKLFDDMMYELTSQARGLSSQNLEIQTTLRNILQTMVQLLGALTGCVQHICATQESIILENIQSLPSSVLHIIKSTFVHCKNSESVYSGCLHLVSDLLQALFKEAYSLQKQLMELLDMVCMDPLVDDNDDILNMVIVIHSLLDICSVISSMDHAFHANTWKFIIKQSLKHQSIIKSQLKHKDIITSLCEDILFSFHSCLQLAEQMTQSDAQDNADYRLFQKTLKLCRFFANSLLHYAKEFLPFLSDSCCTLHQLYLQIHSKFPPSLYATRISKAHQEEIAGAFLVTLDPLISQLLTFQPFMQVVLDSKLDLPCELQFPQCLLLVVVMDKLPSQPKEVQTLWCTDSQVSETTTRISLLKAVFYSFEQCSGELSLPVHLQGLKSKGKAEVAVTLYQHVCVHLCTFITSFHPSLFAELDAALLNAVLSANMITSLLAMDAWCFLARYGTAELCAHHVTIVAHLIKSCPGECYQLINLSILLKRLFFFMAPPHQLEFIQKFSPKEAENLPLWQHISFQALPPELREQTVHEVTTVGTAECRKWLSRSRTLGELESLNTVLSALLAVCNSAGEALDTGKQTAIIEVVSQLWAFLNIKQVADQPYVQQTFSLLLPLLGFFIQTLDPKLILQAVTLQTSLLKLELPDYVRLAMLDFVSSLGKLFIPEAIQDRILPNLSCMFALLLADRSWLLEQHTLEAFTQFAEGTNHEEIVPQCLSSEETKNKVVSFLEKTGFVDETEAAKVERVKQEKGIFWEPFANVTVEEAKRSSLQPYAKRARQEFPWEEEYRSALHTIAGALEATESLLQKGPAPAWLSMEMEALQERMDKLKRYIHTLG
UniProt P35613: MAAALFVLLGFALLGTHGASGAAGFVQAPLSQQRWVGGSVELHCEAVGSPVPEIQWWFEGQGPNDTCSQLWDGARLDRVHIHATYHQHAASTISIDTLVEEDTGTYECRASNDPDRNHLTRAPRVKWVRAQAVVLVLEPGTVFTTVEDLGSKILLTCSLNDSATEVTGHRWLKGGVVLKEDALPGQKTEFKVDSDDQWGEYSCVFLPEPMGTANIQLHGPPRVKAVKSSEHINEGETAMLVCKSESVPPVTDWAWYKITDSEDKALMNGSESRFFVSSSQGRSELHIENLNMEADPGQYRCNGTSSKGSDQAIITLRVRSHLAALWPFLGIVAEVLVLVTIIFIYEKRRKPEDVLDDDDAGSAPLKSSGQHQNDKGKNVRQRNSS
UniProt Q9HB71: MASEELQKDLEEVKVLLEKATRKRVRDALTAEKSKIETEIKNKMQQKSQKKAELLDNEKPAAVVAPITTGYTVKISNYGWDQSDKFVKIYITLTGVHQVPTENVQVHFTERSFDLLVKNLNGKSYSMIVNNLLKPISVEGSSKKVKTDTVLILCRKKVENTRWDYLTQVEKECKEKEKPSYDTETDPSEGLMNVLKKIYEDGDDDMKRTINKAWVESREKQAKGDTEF
UniProt Q9H3H3: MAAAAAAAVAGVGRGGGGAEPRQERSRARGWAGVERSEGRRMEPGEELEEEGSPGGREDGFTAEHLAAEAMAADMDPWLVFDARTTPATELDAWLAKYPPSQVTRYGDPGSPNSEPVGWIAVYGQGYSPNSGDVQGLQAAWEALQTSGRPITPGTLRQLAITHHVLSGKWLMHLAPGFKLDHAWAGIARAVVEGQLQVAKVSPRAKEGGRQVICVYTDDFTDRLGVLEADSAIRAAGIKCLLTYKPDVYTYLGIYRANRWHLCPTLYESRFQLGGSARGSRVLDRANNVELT
UniProt Q92851: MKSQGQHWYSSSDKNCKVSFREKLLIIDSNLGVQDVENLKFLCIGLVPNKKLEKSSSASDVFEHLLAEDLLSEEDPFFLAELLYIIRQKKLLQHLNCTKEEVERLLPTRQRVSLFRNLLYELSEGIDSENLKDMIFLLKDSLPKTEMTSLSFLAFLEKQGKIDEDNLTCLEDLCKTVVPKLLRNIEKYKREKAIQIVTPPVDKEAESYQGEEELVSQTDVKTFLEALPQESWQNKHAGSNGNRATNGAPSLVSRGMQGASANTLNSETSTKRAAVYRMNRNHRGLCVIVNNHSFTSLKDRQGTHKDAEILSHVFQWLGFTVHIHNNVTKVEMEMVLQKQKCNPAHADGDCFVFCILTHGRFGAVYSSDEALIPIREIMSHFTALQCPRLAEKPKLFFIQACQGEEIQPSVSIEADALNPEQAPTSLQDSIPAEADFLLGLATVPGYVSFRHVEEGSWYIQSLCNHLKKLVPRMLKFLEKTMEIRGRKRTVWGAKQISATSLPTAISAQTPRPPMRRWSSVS
UniProt Q8N4T8: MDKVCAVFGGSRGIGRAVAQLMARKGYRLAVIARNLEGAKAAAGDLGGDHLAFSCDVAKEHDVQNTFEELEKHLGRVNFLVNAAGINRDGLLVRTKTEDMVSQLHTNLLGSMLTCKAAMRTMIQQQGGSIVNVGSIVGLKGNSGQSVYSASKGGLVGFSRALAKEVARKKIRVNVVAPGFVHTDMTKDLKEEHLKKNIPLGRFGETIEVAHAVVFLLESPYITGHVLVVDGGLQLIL
UniProt Q49AR2, 182-204: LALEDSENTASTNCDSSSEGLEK
UniProt Q96B45: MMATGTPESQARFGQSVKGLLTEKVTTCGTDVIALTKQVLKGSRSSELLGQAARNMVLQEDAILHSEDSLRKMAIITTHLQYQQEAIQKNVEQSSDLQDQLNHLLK

Compound in one test: ClCC(=O)N[C@H]1CCCc2ccccc12
The experiment in a line: log2 mean competition ratio of IA-DTB cysteine labelling (DMSO/compound) (log2 ratio); higher = stronger cysteine engagement by compound. To be noted: 50 µM; treatment time: 4 h; cell line lysate: HEK293T. As to the method:
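IA-DTB competitive cysteine chemoproteomics in HEK293T RIPA lysate. Lysates were treated with compound 29 or 30 at 50 or 200 µM for 4 h, then IA-DTB (500 µM, 1 h), trypsin-digested, NeutrAvidin-enriched and analysed by diaPASEF. Competition ratio = intensity DMSO / intensity compound (n=4 treated, n=64 DMSO); binding: mean log2 CR ≥ 1 and p ≤ 0.05 plus QC filters. Target is the cysteine site.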
As for “CASP3_(C170,C170,C184,C184) (UniProt P42574)”, the “log2 mean competition ratio” value came out at 0.213.

As for C1GALT1 C232 (UniProt Q9NS00), the “log2 mean competition ratio” value is -0.231.

For BTAF1 C371 (UniProt O14981), the “log2 mean competition ratio” value was -0.565.

With C2CD2L C115 (UniProt O14523), the “log2 mean competition ratio” value was 0.0958.

Turning to CAPNS1 C144, the “log2 mean competition ratio” value was -0.0811.

Take CAND1 C954: the “log2 mean competition ratio” value is 0.574.

For the target CASK C633 (UniProt O14936), the “log2 mean competition ratio” value was -0.1.

Take CAD C986: the “log2 mean competition ratio” value amounted to 0.701.

Turning to C15orf39 C892 (UniProt Q6ZRI6), the “log2 mean competition ratio” value came to 0.0557.

On to C1orf112 C103 (UniProt Q9NSG2), for which the “log2 mean competition ratio” value was 0.0368.

With BPNT1 C243, the “log2 mean competition ratio” value turned out to be 0.182.

With BSG C242 (UniProt P35613), the “log2 mean competition ratio” value was 0.134.

With BPTF C1969, the “log2 mean competition ratio” value is -0.625.

In the case of CACYBP C173 (UniProt Q9HB71), the “log2 mean competition ratio” value was -0.308.

On to C11orf68 C214 (UniProt Q9H3H3), for which the “log2 mean competition ratio” value is -0.453.

For the target CASP10 C43 (UniProt Q92851), the “log2 mean competition ratio” value is -0.344.

For CBR4 C5 (UniProt Q8N4T8), the “log2 mean competition ratio” value was -0.0293.

Regarding C5orf22 C195 (UniProt Q49AR2), the “log2 mean competition ratio” value was determined as 0.294.

On to BOD1L1 C749 (UniProt Q8NFC6), for which the “log2 mean competition ratio” value was found to be 0.165.

As for BORCS7 C28 (UniProt Q96B45), the “log2 mean competition ratio” value came out at 0.0789.

The same test, now with this note: 200 µM; treatment time: 4 h; cell line lysate: HEK293T.
Regarding “CASP3_(C170,C170,C184,C184) (UniProt P42574)”, the “log2 mean competition ratio” value was -0.181.

C1GALT1 C232 (UniProt Q9NS00): the “log2 mean competition ratio” value was -0.252.

As to BTAF1 C371 (UniProt O14981), the “log2 mean competition ratio” value was -0.103.

Consider C2CD2L C115 (UniProt O14523), for which the “log2 mean competition ratio” value amounted to 0.153.

CAPNS1 C144: the “log2 mean competition ratio” value is 0.0946.

Regarding CAND1 C954, the “log2 mean competition ratio” value was -0.0911.

As to CASK C633 (UniProt O14936), the “log2 mean competition ratio” value worked out at 0.0514.

With CAD C986, the “log2 mean competition ratio” value is -0.435.

As to C15orf39 C892 (UniProt Q6ZRI6), the “log2 mean competition ratio” value was determined as 0.0745.

In the case of C1orf112 C103 (UniProt Q9NSG2), the “log2 mean competition ratio” value is -0.109.

With BPNT1 C243, the “log2 mean competition ratio” value is -0.0273.

In the case of BSG C242 (UniProt P35613), the “log2 mean competition ratio” value worked out at 0.115.

Turning to BPTF C1969, the “log2 mean competition ratio” value is -0.261.

Regarding CACYBP C173 (UniProt Q9HB71), the “log2 mean competition ratio” value is 0.204.

As to C11orf68 C214 (UniProt Q9H3H3), the “log2 mean competition ratio” value was -0.373.

With CASP10 C43 (UniProt Q92851), the “log2 mean competition ratio” value is -0.00529.

Take CBR4 C5 (UniProt Q8N4T8): the “log2 mean competition ratio” value was -0.0816.

C5orf22 C195 (UniProt Q49AR2): the “log2 mean competition ratio” value is -0.492.

Take BOD1L1 C749 (UniProt Q8NFC6): the “log2 mean competition ratio” value was 0.178.

For the target BORCS7 C28 (UniProt Q96B45), the “log2 mean competition ratio” value was found to be 0.0503.

The values are drawn from the supplement of paper PMC11732987, “Enantioselective OTUD7B fragment discovery through chemoproteomics screening and high-throughput optimisation” (Communications Chemistry, 2025).
